How the values were obtained:
[1] = molecular target: PhoR histidine kinase (Mycobacterium tuberculosis, UniProt P71815); experiment: biochemical
[2] = molecular target: MtrB histidine kinase (Mycobacterium tuberculosis, UniProt P9WGK9); experiment: biochemical

Chains of the proteins cited; added tags and fusions are not shown. Residues count along the entry.
UniProt P71815, 181-485 limits assumed: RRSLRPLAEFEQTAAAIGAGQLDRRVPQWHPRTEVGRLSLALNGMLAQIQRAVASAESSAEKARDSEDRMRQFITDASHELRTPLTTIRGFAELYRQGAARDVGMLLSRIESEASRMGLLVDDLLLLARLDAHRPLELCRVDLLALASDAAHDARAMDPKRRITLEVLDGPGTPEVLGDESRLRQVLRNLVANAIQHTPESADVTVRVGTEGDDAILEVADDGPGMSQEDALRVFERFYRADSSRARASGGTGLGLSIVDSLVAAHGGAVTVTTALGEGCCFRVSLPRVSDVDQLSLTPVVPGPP
UniProt P9WGK9, 302-519 limits assumed: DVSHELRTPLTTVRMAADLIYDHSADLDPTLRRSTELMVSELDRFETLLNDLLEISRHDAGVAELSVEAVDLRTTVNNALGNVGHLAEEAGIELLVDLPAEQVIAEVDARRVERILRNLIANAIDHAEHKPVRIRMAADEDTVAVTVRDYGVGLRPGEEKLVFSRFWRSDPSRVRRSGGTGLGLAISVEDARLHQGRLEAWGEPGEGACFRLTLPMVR

## CC/C(=C(\c1ccccc1)c1ccc(OCCN(C)C)cc1)c1ccccc1 [TAM, tamoxifen]
[1]
  Kd: 0.108 ± 0.044 µM
[2]
  Kd: 0.412 ± 0.083 µM

— paper PMC12889096 (Microbiology Spectrum, 2025)
